For the experiment, the target named is retinoid X receptor α (RXRα) (human (endogenous in HCT-116)) (UniProt P19793). Kind of experiment: co-IP; HCT-116 or HCT-116^Sphk2 cells with or without ATRA for 6 h; lysed in RIPA buffer (150 mM NaCl, 5 mM EDTA, 50 mM Hepes pH 7.0, 0.5% deoxycholate, 1% NP-40), 500 uL lysate with 2 ug of specific antibody; western blot of SphK2 and RXRα; which antibody precipitated is not stated. (In general: In western blotting, separated proteins are transferred to a membrane and probed.)

By UniProt entry, the sequences of proteins in these tests, tags left out.
UniProt P19793: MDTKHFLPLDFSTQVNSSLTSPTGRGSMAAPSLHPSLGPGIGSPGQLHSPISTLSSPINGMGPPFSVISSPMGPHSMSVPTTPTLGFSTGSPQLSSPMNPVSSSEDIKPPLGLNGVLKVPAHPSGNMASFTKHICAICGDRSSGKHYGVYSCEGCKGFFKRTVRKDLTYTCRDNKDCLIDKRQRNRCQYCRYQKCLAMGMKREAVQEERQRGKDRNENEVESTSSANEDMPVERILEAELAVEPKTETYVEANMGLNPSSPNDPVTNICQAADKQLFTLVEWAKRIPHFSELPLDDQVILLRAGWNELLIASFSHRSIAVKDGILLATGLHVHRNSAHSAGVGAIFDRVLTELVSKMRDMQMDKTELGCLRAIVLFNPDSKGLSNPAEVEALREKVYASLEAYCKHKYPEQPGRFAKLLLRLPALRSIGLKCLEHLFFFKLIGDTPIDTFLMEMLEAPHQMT

These are yes or no findings as the source states them, for the method shown. In cells and extracts the contact can be indirect. Some results given as binding are weak or reduced against the parent protein; the word gives no strength. Where a sequence is shown, tags or fusion partners need not be part of it.

For one molecule, binding results are on record in PMC5503636.

B1: sphingosine kinase 2 (SphK2), transfected (plasmid pWZL-Neo-Myr-Flag-SphK2) (enzyme, UniProt Q9NRA0 1-654)
chain: MNGHLEAEEQQDQRPDQELTGSWGHGPRSTLVRAKAMAPPPPPLAASTPLLHGEFGSYPARGPRFALTLTSQALHIQRLRPKPEARPRGGLVPLAEVSGCCTLRSRSPSDSAAYFCIYTYPRGRRGARRRATRTFRADGAATYEENRAEAQRWATALTCLLRGLPLPGDGEITPDLLPRPPRLLLLVNPFGGRGLAWQWCKNHVLPMISEAGLSFNLIQTERQNHARELVQGLSLSEWDGIVTVSGDGLLHEVLNGLLDRPDWEEAVKMPVGILPCGSGNALAGAVNQHGGFEPALGLDLLLNCSLLLCRGGGHPLDLLSVTLASGSRCFSFLSVAWGFVSDVDIQSERFRALGSARFTLGTVLGLATLHTYRGRLSYLPATVEPASPTPAHSLPRAKSELTLTPDPAPPMAHSPLHRSVSDLPLPLPQPALASPGSPEPLPILSLNGGGPELAGDWGGAGDAPLSPDPLLSSPPGSPKAALHSPVSEGAPVIPPSSGLPLPTPDARVGASTCGPPDHLLPPLGTPLPPDWVTLEGDFVLMLAISPSHLGADLVAAPHARFDDGLVHLCWVRSGISRAALLRLFLAMERGSHFSLGCPQLGYAAARAFRLEPLTPRGVLTVDGEQVEYGPLQAQMHPGIGTLLTGPPGCPGREP
With B1, the binding result is “binds”.
